Laboratory results: patent publication EP2718307B1 (Polyphor AG, priority 2011, dated 2012)

Test: general procedure: Fmoc solid-phase peptide synthesis; Fmoc-Pro-2-chlorotrityl resin
Conditions: whole synthesis, UV 220 nm

Final HPLC purity, 95%:
PEPTIDE1{Y.H.A.C.S.A.[UDTyrMe].[UOrniPr].R.Y.C.Y.Q.[ULysiPr].[UDPro].P}$PEPTIDE1,PEPTIDE1,16:R2-1:R1|PEPTIDE1,PEPTIDE1,4:R3-11:R3$$$V2.0
PEPTIDE1{Y.H.A.C.S.A.[UDTyr].[UDab].R.Y.C.Y.Q.[ULysiPr].[UDPro].P}$PEPTIDE1,PEPTIDE1,16:R2-1:R1|PEPTIDE1,PEPTIDE1,4:R3-11:R3$$$V2.0
PEPTIDE1{Y.H.Y.C.S.A.[UDPro].[UOrniPr].R.Y.C.Y.Q.[ULysiPr].[UDPro].P}$PEPTIDE1,PEPTIDE1,16:R2-1:R1|PEPTIDE1,PEPTIDE1,4:R3-11:R3$$$V2.0
PEPTIDE1{Y.H.[UTyrMe].C.S.A.[UDPro].[UOrniPr].R.Y.C.Y.Q.[ULysiPr].[UDPro].P}$PEPTIDE1,PEPTIDE1,16:R2-1:R1|PEPTIDE1,PEPTIDE1,4:R3-11:R3$$$V2.0
PEPTIDE1{Y.H.Y.C.S.A.[UDTyr].[UOrniPr].R.Y.C.Y.Q.[ULysiPr].[UDPro].P}$PEPTIDE1,PEPTIDE1,16:R2-1:R1|PEPTIDE1,PEPTIDE1,4:R3-11:R3$$$V2.0
PEPTIDE1{Y.H.[UTyrMe].C.S.A.[UDTyrMe].[UOrniPr].R.Y.C.Y.Q.[ULysiPr].[UDPro].P}$PEPTIDE1,PEPTIDE1,16:R2-1:R1|PEPTIDE1,PEPTIDE1,4:R3-11:R3$$$V2.0

Strings that start with PEPTIDE1 are HELM notation: dots part the residues, brackets hold end groups and non-standard residues. One purity is given for all peptides; the source may state it once.
